# Measurements reported in PubChem BioAssay AID1224830 (NIAID, 2016).
# Screen: 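Host factors that control LPS-induced TNF expression in human macrophages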 (primary screen)
# Cell system: human THP-1 monocytic leukaemia cells, TNF dual-luciferase reporter clone, PMA-differentiated to macrophage-like cells
# Reagent: siRNA pool against human genes, 50 nM
# Timing: LPS for 4 h, given about 3 days after siRNA transfection
# Conditions: bacterial LPS (TLR4 ligand), 10 ng/ml
# Detection: 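Ratio of firefly to renilla light, scaled to the plate median and expressed as a robust z-score per replicate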
# Direction: TNF reporter robust z-score: higher = stronger TNF reporter response to LPS
# Call rule: 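Each well counts as active if its z-score is over 2.8 or under -1.5; controls are left without a call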
# This is an unselected part of about 18,000 reagents tested. About 2,900 of them (16%) count as active. 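Calls are made per well; low scores hint the gene aids the LPS response, high scores that it dampens it.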 Repeated entries: four replicate wells of each siRNA pool. Reagent sequences are not shown.
target gene,PubChem SID,TNF reporter robust z-score,Call
HIP1 (huntingtin interacting protein 1),SID315449191,0.66,inactive
HIP1 (huntingtin interacting protein 1),SID315449191,-0.55,inactive
HIP1 (huntingtin interacting protein 1),SID315449191,-0.44,inactive
NAALAD2 (N-acetylated alpha-linked acidic dipeptidase 2),SID315453742,0.02,inactive
NAALAD2 (N-acetylated alpha-linked acidic dipeptidase 2),SID315453742,-0.87,inactive
NAALAD2 (N-acetylated alpha-linked acidic dipeptidase 2),SID315453742,-0.85,inactive
NAALAD2 (N-acetylated alpha-linked acidic dipeptidase 2),SID315453742,-0.9,inactive
VDR (vitamin D receptor),SID315452109,0.27,inactive
VDR (vitamin D receptor),SID315452109,0.39,inactive
VDR (vitamin D receptor),SID315452109,-0.16,inactive
VDR (vitamin D receptor),SID315452109,0.98,inactive
SLC17A5,SID315455792,0.22,inactive
SLC17A5,SID315455792,0.65,inactive
SLC17A5,SID315455792,0.02,inactive
SLC17A5,SID315455792,1.48,inactive
COA3 (cytochrome c oxidase assembly factor 3),SID315456077,-1.48,inactive
COA3 (cytochrome c oxidase assembly factor 3),SID315456077,-1.28,inactive
COA3 (cytochrome c oxidase assembly factor 3),SID315456077,-0.58,inactive
COA3 (cytochrome c oxidase assembly factor 3),SID315456077,-1.03,inactive
DLD (dihydrolipoamide dehydrogenase),SID315448315,-0.09,inactive
DLD (dihydrolipoamide dehydrogenase),SID315448315,0.11,inactive
DLD (dihydrolipoamide dehydrogenase),SID315448315,-1.52,active
DLD (dihydrolipoamide dehydrogenase),SID315448315,-1.64,active
GPRASP2 (G protein-coupled receptor associated sorting protein 2),SID315461278,0.25,inactive
GPRASP2 (G protein-coupled receptor associated sorting protein 2),SID315461278,1,inactive
GPRASP2 (G protein-coupled receptor associated sorting protein 2),SID315461278,-0.34,inactive
GPRASP2 (G protein-coupled receptor associated sorting protein 2),SID315461278,0.45,inactive
SPCS1 (signal peptidase complex subunit 1),SID315456088,-0.34,inactive
SPCS1 (signal peptidase complex subunit 1),SID315456088,0.05,inactive
SPCS1 (signal peptidase complex subunit 1),SID315456088,1.61,inactive
SPCS1 (signal peptidase complex subunit 1),SID315456088,1.79,inactive
RYK (receptor like tyrosine kinase),SID315451263,-0.48,inactive
RYK (receptor like tyrosine kinase),SID315451263,-0.03,inactive
RYK (receptor like tyrosine kinase),SID315451263,-0.65,inactive
RYK (receptor like tyrosine kinase),SID315451263,0.66,inactive
SLC2A10,SID315459842,2.07,inactive
SLC2A10,SID315459842,-0.23,inactive
SLC2A10,SID315459842,1.7,inactive
SLC2A10,SID315459842,0.65,inactive

Active calls, of those listed so far:
target gene,PubChem SID,TNF reporter robust z-score,Call
DLD (dihydrolipoamide dehydrogenase),SID315448315,-1.52,active
DLD (dihydrolipoamide dehydrogenase),SID315448315,-1.64,active

The listing continues.
target gene,PubChem SID,TNF reporter robust z-score,Call
GPRC6A (G protein-coupled receptor class C group 6 member A),SID315463345,0.94,inactive
GPRC6A (G protein-coupled receptor class C group 6 member A),SID315463345,-0.45,inactive
GPRC6A (G protein-coupled receptor class C group 6 member A),SID315463345,0.54,inactive
GPRC6A (G protein-coupled receptor class C group 6 member A),SID315463345,0.47,inactive
TGM7 (transglutaminase 7),SID315461356,0.25,inactive
TGM7 (transglutaminase 7),SID315461356,1.26,inactive
TGM7 (transglutaminase 7),SID315461356,0.44,inactive
TGM7 (transglutaminase 7),SID315461356,0.91,inactive
HSPA4L (heat shock protein family A (Hsp70) member 4 like),SID315454797,0.34,inactive
HSPA4L (heat shock protein family A (Hsp70) member 4 like),SID315454797,1.33,inactive
HSPA4L (heat shock protein family A (Hsp70) member 4 like),SID315454797,0.7,inactive
HSPA4L (heat shock protein family A (Hsp70) member 4 like),SID315454797,1.65,inactive
MINDY4 (MINDY lysine 48 deubiquitinase 4),SID315460228,0.16,inactive
MINDY4 (MINDY lysine 48 deubiquitinase 4),SID315460228,0.58,inactive
MINDY4 (MINDY lysine 48 deubiquitinase 4),SID315460228,0.71,inactive
MINDY4 (MINDY lysine 48 deubiquitinase 4),SID315460228,1.77,inactive
CCNB1 (cyclin B1),SID315447739,-1.02,inactive
CCNB1 (cyclin B1),SID315447739,-0.13,inactive
CCNB1 (cyclin B1),SID315447739,-0.72,inactive
CCNB1 (cyclin B1),SID315447739,-0.41,inactive
SERPINA6 (serpin family A member 6),SID315447724,1.8,inactive
SERPINA6 (serpin family A member 6),SID315447724,0,inactive
SERPINA6 (serpin family A member 6),SID315447724,-0.26,inactive
SERPINA6 (serpin family A member 6),SID315447724,0.2,inactive
TIMM9 (translocase of inner mitochondrial membrane 9),SID315455803,-1.18,inactive
TIMM9 (translocase of inner mitochondrial membrane 9),SID315455803,-0.61,inactive
TIMM9 (translocase of inner mitochondrial membrane 9),SID315455803,0.56,inactive
TIMM9 (translocase of inner mitochondrial membrane 9),SID315455803,-0.2,inactive
PPIA (peptidylprolyl isomerase A),SID315450729,0.94,inactive
PPIA (peptidylprolyl isomerase A),SID315450729,2.01,inactive
PPIA (peptidylprolyl isomerase A),SID315450729,0.83,inactive
PPIA (peptidylprolyl isomerase A),SID315450729,2,inactive
DERL1 (derlin 1),SID315459222,-0.52,inactive
DERL1 (derlin 1),SID315459222,-0.61,inactive
DERL1 (derlin 1),SID315459222,-0.16,inactive
DERL1 (derlin 1),SID315459222,-0.7,inactive
